# Data published in publication PMC5722368.
# Target: T1, Schistosoma mansoni histone deacetylase 8 (SmHDAC8), endogenous (S. mansoni (endogenous in adult worms)) (UniProt A5H660)
# T1 sequence: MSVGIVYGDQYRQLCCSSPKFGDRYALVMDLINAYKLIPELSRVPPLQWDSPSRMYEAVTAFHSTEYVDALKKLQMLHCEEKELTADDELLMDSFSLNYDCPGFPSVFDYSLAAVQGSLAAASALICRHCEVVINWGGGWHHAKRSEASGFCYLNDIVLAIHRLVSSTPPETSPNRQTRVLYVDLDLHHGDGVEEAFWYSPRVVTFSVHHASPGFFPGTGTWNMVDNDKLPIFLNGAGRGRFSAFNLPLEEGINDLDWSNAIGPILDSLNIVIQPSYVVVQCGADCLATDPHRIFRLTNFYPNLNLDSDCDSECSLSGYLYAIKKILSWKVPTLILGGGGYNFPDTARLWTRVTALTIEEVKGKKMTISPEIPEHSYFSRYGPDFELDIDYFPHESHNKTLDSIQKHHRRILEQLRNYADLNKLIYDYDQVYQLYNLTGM
# Test: affinity purification with mass spectrometry; Co-IP of endogenous SmHDAC8 from adult worm lysate (20 mM Tris HCl pH 7.4, 50 mM NaCl, 5 mM EDTA, 1% Triton) with rat anti-SmHDAC8 antibodies on protein-L agarose, overnight at 4°C; rat IgG control; three experiments pooled; nanoLC-MS/MS
row,Substance,binding
1,Sec61β (S. mansoni),binds
2,cathepsin D (S. mansoni (endogenous in adult worms)) (enzyme),binds
3,cathepsin L2 (S. mansoni (endogenous in adult worms)) (enzyme),binds
4,Sec1 (S. mansoni),binds
5,gelsolin (S. mansoni orthologue),binds

# The remaining lines, values ahead:
row,binding,Substance
1,binds,"putative NADH-ubiquinone oxidoreductase, endogenous (S. mansoni (endogenous in adult worms))"
2,binds,"microsomal glutathione S-transferase 3 (GST-3), endogenous (S. mansoni (endogenous in adult worms))"
3,binds,septin (S. mansoni)

# These are yes or no findings as the source states them, for the method shown. In cells and extracts the contact can be indirect. These calls come from enrichment with a bait or labelling near it, and not all partners need be listed. Sequences can lack the tags named with a protein.
